# From PMC7862700
# The entries are a selection whose mix differs from that of the whole data set. At the low end of the ranking the order means little.
# What was measured:
# Assay in all cases: DAPPL (digital affinity profiling via proximity ligation, sequencing)
# Details in all cases: 10 mM Tris-HCl pH 7.5, 50 mM NaCl, 1 mM DTT, 4% glycerol, room temperature, 30 min; GST-TFs on glutathione beads, 16-mer random dsDNA library, 0.1% …; high values mean tight binding; double strand, one strand shown; scale: fold enrichment (6-mer frequency, TF over GST control)
# [1] = molecular target: T1, SPIC (UniProt Q8N5J4)
# T1 sequence: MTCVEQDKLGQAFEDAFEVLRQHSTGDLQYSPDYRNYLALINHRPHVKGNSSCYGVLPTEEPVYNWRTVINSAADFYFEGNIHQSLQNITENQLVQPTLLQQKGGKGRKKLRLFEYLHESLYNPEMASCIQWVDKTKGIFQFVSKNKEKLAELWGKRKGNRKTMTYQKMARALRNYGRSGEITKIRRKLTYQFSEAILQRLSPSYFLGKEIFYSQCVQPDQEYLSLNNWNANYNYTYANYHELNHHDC
# [2] = molecular target: T2, ETV3 (UniProt P41162-2)
# T2 sequence: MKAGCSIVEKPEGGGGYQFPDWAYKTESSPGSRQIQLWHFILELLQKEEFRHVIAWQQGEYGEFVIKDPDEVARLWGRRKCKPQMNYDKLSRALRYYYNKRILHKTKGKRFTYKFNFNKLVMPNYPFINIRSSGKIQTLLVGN
# [3] = molecular target: T3, ELK3 (UniProt P41970)
# T3 sequence: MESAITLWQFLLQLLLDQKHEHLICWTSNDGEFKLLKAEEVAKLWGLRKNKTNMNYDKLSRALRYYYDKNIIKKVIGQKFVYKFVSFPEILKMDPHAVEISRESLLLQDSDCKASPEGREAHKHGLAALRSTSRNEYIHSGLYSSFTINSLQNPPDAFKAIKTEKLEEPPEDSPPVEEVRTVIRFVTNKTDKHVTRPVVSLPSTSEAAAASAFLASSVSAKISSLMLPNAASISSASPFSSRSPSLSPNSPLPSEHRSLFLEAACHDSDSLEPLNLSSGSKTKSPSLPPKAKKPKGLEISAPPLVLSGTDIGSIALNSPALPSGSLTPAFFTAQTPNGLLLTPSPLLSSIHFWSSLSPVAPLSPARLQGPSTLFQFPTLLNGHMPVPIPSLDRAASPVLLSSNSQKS
Sequence,binding signal [1],binding signal [2],binding signal [3]
TGGCCA,0.971,1,–
AATATA,1.29,1.35,–
TTAAGG,1.23,1.16,1.06
ACCGGC,0.934,1.15,–
TGTCTG,1.33,0.986,0.965
CCGGGT,1.19,1.21,0.989
TAAGTA,1.25,1.23,–
TAAATC,1.2,1.18,–
GCCTTA,1.07,1.08,–
TGCCAC,1.19,1.18,–
CCACCA,0.887,0.967,–
AAGCTG,1.08,1.24,–
TAGGTA,0.912,0.975,0.963
CCTGTG,1.32,1.07,–
GTCCTC,1.14,1.2,–
CTCCGA,1.51,1.3,–
AAACCT,1.09,1.1,–
ACTCCA,1.18,1.17,–
AACCGA,1.09,0.977,–
ACAAAT,1.12,1.1,–
TGCTTA,1.32,1.18,–
TCATTG,0.901,0.857,0.951
TCAAGT,1.12,1.1,–
GTACGC,1.2,1.14,0.993
GCGCTT,1.26,1.42,–

# Individual results from the list:
# Entry for TGTCTG under binding signal [3]: 0.965
# Entry for GTCCTC under binding signal [1]: 1.14

# (further entries)

Sequence,binding signal [1],binding signal [2],binding signal [3]
ATTGTT,1.45,1.56,1.55
TTTCGC,1.2,1.13,–
CAGCAT,0.928,0.97,–
CATCAG,0.924,0.96,–
CATACA,0.973,0.986,1.22
GTACCC,0.913,1.06,1.12
CACTGT,1.19,1.12,1.03
GCCCAA,0.99,0.96,0.931
GCCGGA,0.879,–,1.11
CGTTTG,0.981,1.08,1
GGTAAT,0.951,–,0.998
ACACCG,0.899,–,0.949
CCGCAG,0.984,1.07,1.14
TTGAGC,1.18,–,0.862
ACACTG,1.3,1.01,1.04
TGGTGC,1.14,–,0.995
AATGGA,0.976,0.974,0.978
CAGATT,0.845,–,1.12
TATCTT,1.27,–,1.24
CCCCCT,1.31,–,1.32
ACGACT,1.26,1.22,1.24
ACGATA,1.38,1.13,1.16
TTCTGT,1.41,–,1.33
AATGTA,1.12,–,1.17
